Measured values as given in PMC6016464, “Folding and binding pathways of BH3-only proteins are encoded within their intrinsically disordered sequence, not templated by partner proteins” (The Journal of Biological Chemistry, 2018).
No constants are given. Whether binding was seen depends on the method and setting. Some results given as binding are weak or reduced against the parent protein; the word gives no strength. One block for each binder: values may come before it. Where no end group is shown, it is not given here. The star is where a group is joined. TAMRA = 5-carboxytetramethylrhodamine, CN(C)c1ccc2c(-c3ccc(C(=O)*)cc3C(=O)[O-])c3ccc(=[N+](C)C)cc-3oc2c1

Tests used:
[1] = biological target: T1, MCL-1 (mouse, residues 152-308) (mouse); experiment: stopped-flow fluorescence kinetics; association; TAMRA-labelled peptide with folded partner at least 10-fold higher (pseudo-first-order); kon from the gradient of kobs versus partner concentration; 25 °C; 50 mM sodium phosphate, 0.05% (v/v) Tween 20, pH 7.0; both purified
T1 construct: remnant of thrombin cleavage at the N-terminus of MCL-1; MCL-1, mouse, residues 152-308, UniProt P97287; source: E. coli C41 pLysS, purified (Ni2+ agarose, thrombin cleavage, ion exchange, Superdex G75 gel filtration); not shown: His6, N-terminal, cleaved
T1 chain: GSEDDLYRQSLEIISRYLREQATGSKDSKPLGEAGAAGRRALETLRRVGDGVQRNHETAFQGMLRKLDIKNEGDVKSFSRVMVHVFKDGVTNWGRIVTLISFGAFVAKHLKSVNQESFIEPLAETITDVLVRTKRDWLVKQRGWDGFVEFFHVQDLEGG

[2] = biological target: T2, A1 (mouse, residues 1-152) (mouse) (UniProt Q07440); experiment: stopped-flow fluorescence kinetics; association kinetics by TAMRA fluorescence, pseudo-first-order, folded partner at least 10-fold over the peptide; 25 °C; 50 mM sodium phosphate, 0.05% (v/v) Tween 20, pH 7.0; Kd calculated as koff/kon with koff from the dissociation kinetics; both purified
T2 sequence: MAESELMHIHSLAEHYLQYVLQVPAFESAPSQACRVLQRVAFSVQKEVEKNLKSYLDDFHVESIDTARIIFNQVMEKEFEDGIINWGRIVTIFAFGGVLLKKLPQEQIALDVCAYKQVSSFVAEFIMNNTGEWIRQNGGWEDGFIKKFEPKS

[3] = biological target: T2, A1 (mouse, residues 1-152) (mouse); experiment: dissociation kinetics by competition (fluorescence); preformed complex of TAMRA peptide and partner protein mixed with various concentrations of unlabeled PUMA peptide as competitor; stopped-flow or spectrophotometer; 25 °C; 50 mM sodium phosphate, 0.05% (v/v) Tween 20, pH 7.0; both purified
[4] = biological target: T2, A1 (mouse, residues 1-152) (mouse); experiment: stopped-flow fluorescence kinetics; association kinetics by TAMRA fluorescence, pseudo-first-order, folded partner at least 10-fold over the peptide; 25 °C; 50 mM sodium phosphate, 0.05% (v/v) Tween 20, pH 7.0; Kd calculated as koff/kon with koff from the dissociation kinetics; both purified; remark: listed apart in the source

binding [1]: binds
Binder: RVEEEEWAREIGAQLRRAADDLNAQYERRRQEEQH (5-carboxytetramethylrhodamine (TAMRA) conjugated at the N terminus) [PUMA peptide (mouse, residues 127-161, M144A, used as wild type), TAMRA-labelled]

binding [2]: binds | binding [3]: binds
Binder: RVEEEEWAREIGAQLRRAADDLNAQYERRRQEEQH (peptide, UniProt Q99ML1 127-161, 5-carboxytetramethylrhodamine (TAMRA) conjugated at the N terminus) [PUMA peptide (mouse, residues 127-161, M144A), N-terminal TAMRA]

binding [4]: binds | binding [3]: binds
B1: BID peptide (mouse, residues 76-110), N-terminal TAMRA (peptide, UniProt P70444 76-110, looked up)
peptide: {TAMRA}-SESQEEIIHNIARHLAQIGDEMDHNIQPTLVRQLA
notes: BID, mouse, residues 76-110, UniProt P70444; source: synthetic peptide (synthesized by Biomatik)
